These are yes or no findings as the source states them, for the method shown. In cells and extracts the contact can be indirect. Some entries that bind do so weakly or less than the wild type. For part of these data: Sequences can lack the tags named with a protein. One block for each molecule: values may come before it.
Tests used:
[1] = molecular target: T1, cyclin Y (endogenous, mouse brain and testis) (mouse (endogenous in brain and testis)) (UniProt Q8BGU5); test: co-IP; endogenous proteins from 1 mg mouse brain or testis lysate; anti-PCTAIRE-1 G6.1 or anti-cyclin Y (S206D) with protein G-Sepharose, 1 h at 4 °C; washed with lysis buffer + 0.15 M NaCl and Buffer A; immunoblot; rabbit IgG as control
T1 sequence: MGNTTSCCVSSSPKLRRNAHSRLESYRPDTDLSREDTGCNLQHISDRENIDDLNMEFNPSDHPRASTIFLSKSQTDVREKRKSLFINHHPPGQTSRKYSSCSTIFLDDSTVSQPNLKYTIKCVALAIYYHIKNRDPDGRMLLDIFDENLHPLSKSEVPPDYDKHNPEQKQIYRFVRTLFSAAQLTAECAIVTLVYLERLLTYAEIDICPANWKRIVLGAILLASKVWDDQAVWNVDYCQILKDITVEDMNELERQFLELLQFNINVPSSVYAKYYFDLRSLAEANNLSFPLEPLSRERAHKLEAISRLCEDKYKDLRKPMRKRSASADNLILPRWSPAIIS

By UniProt entry, the sequences of proteins in these tests, tags left out.
UniProt Q04735: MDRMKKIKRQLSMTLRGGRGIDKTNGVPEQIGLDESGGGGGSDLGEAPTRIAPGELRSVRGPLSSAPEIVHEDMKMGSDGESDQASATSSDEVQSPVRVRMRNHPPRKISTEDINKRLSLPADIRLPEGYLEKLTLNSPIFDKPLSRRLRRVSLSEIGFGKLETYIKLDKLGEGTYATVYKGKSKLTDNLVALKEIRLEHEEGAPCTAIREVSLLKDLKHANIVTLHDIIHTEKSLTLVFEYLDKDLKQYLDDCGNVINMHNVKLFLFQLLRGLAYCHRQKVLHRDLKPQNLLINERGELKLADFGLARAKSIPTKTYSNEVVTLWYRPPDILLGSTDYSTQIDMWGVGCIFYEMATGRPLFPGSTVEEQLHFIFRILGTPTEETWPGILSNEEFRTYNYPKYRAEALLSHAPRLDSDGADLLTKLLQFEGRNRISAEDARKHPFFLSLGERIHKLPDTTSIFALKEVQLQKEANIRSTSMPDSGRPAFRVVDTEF

[2] = molecular target: PCTAIRE-1 (endogenous, mouse brain and testis) (mouse (endogenous in brain and testis)) (UniProt Q04735); test: as above
FLAG-NUAK1 = molecular target: T2, FLAG-NUAK1 (UniProt O60285); test: co-IP; HEK293 co-transfected with FLAG- and HA-tagged constructs; FLAG M2- or HA-agarose; washed with lysis buffer + 0.15 M NaCl and Buffer A; immunoblot
T2 sequence: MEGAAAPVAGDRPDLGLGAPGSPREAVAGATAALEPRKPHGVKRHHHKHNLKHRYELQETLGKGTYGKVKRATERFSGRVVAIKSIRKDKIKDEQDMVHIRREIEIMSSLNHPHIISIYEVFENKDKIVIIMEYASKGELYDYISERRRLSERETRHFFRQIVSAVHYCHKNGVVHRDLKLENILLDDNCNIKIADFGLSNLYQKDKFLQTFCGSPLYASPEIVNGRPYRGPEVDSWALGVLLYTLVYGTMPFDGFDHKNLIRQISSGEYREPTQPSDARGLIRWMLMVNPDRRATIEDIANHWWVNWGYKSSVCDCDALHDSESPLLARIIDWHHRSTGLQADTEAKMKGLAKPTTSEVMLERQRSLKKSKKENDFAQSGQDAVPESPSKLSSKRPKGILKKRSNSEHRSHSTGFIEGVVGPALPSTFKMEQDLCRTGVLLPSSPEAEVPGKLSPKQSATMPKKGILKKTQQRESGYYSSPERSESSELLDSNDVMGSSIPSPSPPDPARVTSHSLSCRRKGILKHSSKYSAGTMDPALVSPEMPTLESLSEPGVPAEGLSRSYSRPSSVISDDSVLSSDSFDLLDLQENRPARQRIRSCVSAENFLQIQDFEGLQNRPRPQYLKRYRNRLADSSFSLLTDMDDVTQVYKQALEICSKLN

binding [1]: binds
Molecule: PCTAIRE-1 (endogenous, mouse brain and testis) (from UniProt Q04735 1-496)

binding [2]: binds
B1: cyclin Y (endogenous, mouse brain and testis) (protein, UniProt Q8BGU5 1-341)
chain: MGNTTSCCVSSSPKLRRNAHSRLESYRPDTDLSREDTGCNLQHISDRENIDDLNMEFNPSDHPRASTIFLSKSQTDVREKRKSLFINHHPPGQTSRKYSSCSTIFLDDSTVSQPNLKYTIKCVALAIYYHIKNRDPDGRMLLDIFDENLHPLSKSEVPPDYDKHNPEQKQIYRFVRTLFSAAQLTAECAIVTLVYLERLLTYAEIDICPANWKRIVLGAILLASKVWDDQAVWNVDYCQILKDITVEDMNELERQFLELLQFNINVPSSVYAKYYFDLRSLAEANNLSFPLEPLSRERAHKLEAISRLCEDKYKDLRKPMRKRSASADNLILPRWSPAIIS

binding (FLAG-NUAK1): no binding
B2: HA-cyclin Y (natural protein, human, UniProt Q8ND76-1 1-341, looked up)
chain: MGNTTSCCVSSSPKLRRNAHSRLESYRPDTDLSREDTGCNLQHISDRENIDDLNMEFNPSDHPRASTIFLSKSQTDVREKRKSLFINHHPPGQIARKYSSCSTIFLDDSTVSQPNLKYTIKCVALAIYYHIKNRDPDGRMLLDIFDENLHPLSKSEVPPDYDKHNPEQKQIYRFVRTLFSAAQLTAECAIVTLVYLERLLTYAEIDICPANWKRIVLGAILLASKVWDDQAVWNVDYCQILKDITVEDMNELERQFLELLQFNINVPSSVYAKYYFDLRSLAEANNLSFPLEPLSRERAHKLEAISRLCEDKYKDLRRSARKRSASADNLTLPRWSPAIIS

Source: article PMC3590450, “Analysis of substrate specificity and cyclin Y binding of PCTAIRE-1 kinase” (Cellular Signalling, 2012)
